Literature values, collected in patent US20250320462A1, “METHODS AND APPARATUSES FOR TESTING HEPATOCYTE TOXICITY USING MICROORGANOSPHERES” (XILIS, INC., priority 2022, published 2025).

Tested on: 3D Hepatocyte Spheroid
Details: values above 199 show no toxicity; read-out: 3D Hepatocyte Spheroid pIC50 (converted); cited from earlier work

## CCCCc1oc2ccccc2c1C(=O)c1cc(I)c(OCCN(CC)CC)c(I)c1 [Amiodarone]
  IC50: 27.5 µM
